# Library screening results

Measurements from “University of Dundee, Small-Polar-MMV Screening Library” (2021), ChEMBL document CHEMBL3988442.

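Whole-cell assay for inhibitors of Mycobacterium tuberculosis growth, labelled Cornell in the record; the read-out is not stated. The concentration is filed as 10 mM, unlikely as a test dose, so the dose is not known. The record gives no direction; compounds strong in two other growth screens of this library score well above the rest, so higher reads as stronger inhibition. Size under these conditions: about 53,000 compounds, about 900 of them at 50% or above in at least one test.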

Values are the deposited “Percent Effect”, in %.
The record does not define 0% and 100%; most values in the screen are far below 50% and negative numbers occur (in some assays of this library far below -100).
Compounds were drawn at random from those tested, without regard to their results.

| # | compound | effect |
|---|---|---|
| 1 | `O=C(O)C(F)(F)F.O=C(O)C(F)(F)F.O=C(O)C(F)(F)F.[H][C@@]12CCCO[C@]1([H])[C@H](N(C)Cc1ccco1)CN2Cc1cccnc1` | 15.95 |
| 2 | `Cl.Cl.[H][C@@]12CN(Cc3ccccc3)C[C@]1([H])[C@@H]2CN` | 9.918 |
| 3 | `O=C(CCc1nc(C2CC2)no1)c1ccc2c(c1)OCCO2` | 2.341 |
| 4 | `CCC(C)n1cnc(S(=O)(=O)N(Cc2cccnc2)C(C)C)c1` (stereo unspecified) | 16.99 |
| 5 | `Cc1ccccc1OC(C(=O)N1CCC2(CC1)CN(C)C(=O)O2)C(C)C` (stereo unspecified) | 22.98 |
| 6 | `CCc1ccc(CNC(=O)Nc2cc(C)on2)s1` | -3.539 |
| 7 | `Cc1ccc(CN2CC[C@@H](NC(=O)c3cccnc3)[C@H](O)C2)s1` | 15.49 |
| 8 | `N#Cc1c(SCCN2CCCCCC2)sc2c(O)cc(O)nc12` | -25.52 |
| 9 | `COCC1CN(C(=O)C2=CCCC2)Cc2cnn(CC3CC3)c21` (stereo unspecified) | -12.57 |
| 10 | `Cc1nn(Cc2ccc(C(=O)NC3CCS(=O)(=O)C3)cc2)c(C)c1Br` (stereo unspecified) | 8.936 |
| 11 | `Cc1nccn1C1(C(=O)O)CCN(Cc2ccc3c(c2)OCCO3)CC1` | 34.56 |
| 12 | `[H][C@@]12CCC(=O)N(CCc3c[nH]cn3)[C@]1([H])CCN(Cc1c(C)n[nH]c1C)C2` | 2.606 |
| 13 | `O=S(=O)(Nc1cnc(N2CCOCC2)nc1)c1ccc(Cl)cc1` | -17.06 |
| 14 | `Cc1nccc(C2CN(Cc3cc[nH]n3)CCO2)n1` (stereo unspecified) | -0.9259 |
| 15 | `COCCn1ccc2c(C(=O)NC(C)C)cccc21` | 10.53 |
| 16 | `Cn1cc(N2CCC3(CCCN(Cc4ccoc4)C3)C2=O)cn1` (stereo unspecified) | 11.76 |
| 17 | `O=C(CC1CC1)NC1CCc2c(ccc(=O)n2CC2CC2)C1` (stereo unspecified) | -12.43 |
| 18 | `O=C(C1CCCO1)N1CCC(Cn2cc(C3CCCC3)nn2)CC1` (stereo unspecified) | 23.55 |
| 19 | `Cc1csc(C(Cc2ccsc2)NC(=O)CN(C)Cc2cccnc2)n1.Cl` (stereo unspecified) | 14.48 |
| 20 | `O=C(O)C(F)(F)F.O=C(O)c1c(-c2ccoc2)ncc2c1CCN(C1CCOC1)C2` (stereo unspecified) | 22.31 |
| 21 | `O=C(O)Cn1nc(C2CC2)c2c(-c3ccco3)ccnc21` | 2.92 |
| 22 | `[H][C@]12CC[C@]([H])(CN(Cc3cscn3)C1)N(C(=O)Cc1ccccc1OC)C2` | -58.82 |
| 23 | `CN(Cc1ccco1)C(=O)Nc1cc(C(F)(F)F)c[nH]c1=O` | -17.34 |
| 24 | `CSCCC(O)C(=O)N1CCN(Cc2cccc(Cl)c2)CC1` (stereo unspecified) | -21.08 |
| 25 | `COc1cccc(CN2CCC(Cc3cnc(CN(C)C)cn3)CC2)c1` | -33.1 |
| 26 | `[H][C@@]12C[C@@H](c3nnc(C)[nH]3)O[C@]1([H])CN(C(=O)c1sccc1C)C2` | 7.051 |
| 27 | `Cc1nn(C)c(C)c1CC(=O)N1CCCC(CNS(C)(=O)=O)C1` (stereo unspecified) | -13.44 |
| 28 | `Cc1cnn(C2CCCN(C(=O)CCc3ccncc3)C2)c1` (stereo unspecified) | 23.39 |
| 29 | `COCCN(Cc1cc(O)nc2ccccc12)C(=O)NC(C)C` | 5.305 |
| 30 | `Cc1noc(Cl)c1CCC(=O)N1CCC(CC(N)=O)CC1` | 18.59 |
| 31 | `Cl.O=C(CCC1CCCC1)N1CCCC(c2ncc3c(n2)CCNC3)C1` (stereo unspecified) | -10.67 |
| 32 | `COCC(=O)N1CCC(c2noc3nc(C)cc(C(F)(F)F)c23)CC1` | 0.03494 |
| 33 | `Cc1nc2ncnn2c2ccn(-c3cccnc3O)c(=O)c12` | 10.26 |
| 34 | `Fc1ccc2[nH]c(C3CCCN3CCc3ccccn3)nc2c1` (stereo unspecified) | 43.33 |
| 35 | `CCN(CC)c1ncnc2c(C)nn(CC)c12` | -1.639 |
| 36 | `CN(C)CC(=O)N1CC(c2nn(C)c3nccnc23)C1` | 9.708 |
| 37 | `CC(C)COc1ccccc1CN(C)C(=O)c1cc(=O)[nH]c(=O)[nH]1` | 2.574 |
| 38 | `Cc1ccccc1C(C)CC(=O)N1CC[C@H](O)C1` (stereo partly specified) | -28.29 |
| 39 | `CN(C)CCn1ccnc1C1CCCN(c2ncc(Cl)cc2F)C1` (stereo unspecified) | -0.3524 |
| 40 | `COc1c(Br)cccc1CCNC(=O)c1ccon1` | 37.39 |
| 41 | `CCc1ncc2c(n1)CN(C(=O)COC)C2` | -6.72 |
| 42 | `O=C(O)C(F)(F)F.[H][C@@]12CC(=O)N(Cc3csc(C)n3)[C@@]1([H])CCN2CC1CCOCC1` | -37.2 |
| 43 | `[H][C@@]12CCN(CCOCc3ccccc3)[C@]1([H])CC[C@@H](C(=O)NCC1CC1)O2` | 11.25 |
| 44 | `[H][C@]12CC[C@]([H])(CN(Cc3cccnc3N)C1)N(Cc1c(C)noc1C)C2=O` | -21.03 |
| 45 | `Cc1ccc(CCN2CCC(N(C)Cc3noc(C4CC4)n3)C2)cc1` (stereo unspecified) | 18.43 |
| 46 | `Cc1nc(C)n(C2CCCN(C(=O)CCCn3ccnc3)C2)n1` (stereo unspecified) | 15.96 |
| 47 | `CC(NC(=O)NCC1(c2ccc(F)cc2)CC1)c1nncn1C` (stereo unspecified) | -5.002 |
| 48 | `COCC(=O)N1CCC(Cc2nccnc2-c2c(C)n[nH]c2C)C1` (stereo unspecified) | -32.71 |

The last 3 entries again:

{"compound": "Cc1nc(C)n(C2CCCN(C(=O)CCCn3ccnc3)C2)n1", "stereo": "stereo unspecified", "effect": 15.96}
{"compound": "CC(NC(=O)NCC1(c2ccc(F)cc2)CC1)c1nncn1C", "stereo": "stereo unspecified", "effect": -5.002}
{"compound": "COCC(=O)N1CCC(Cc2nccnc2-c2c(C)n[nH]c2C)C1", "stereo": "stereo unspecified", "effect": -32.71}